Laboratory results as given in US20230272010A1, “ANTIBACTERIAL SYNTHETIC-BIOINFORMATIC NATURAL PRODUCTS AND USES THEREOF” (The Rockefeller University, priority 2020, published 2023).
Not every detail of the peptide structures is certain; ends, links or a residue may be inferred. Residues, ends and D or L forms follow the SMILES beside them.

Test system: S. aureus or B. subtilis
Test: Membrane lysis assay (SYTOX fluorescence)
Assay type: cell-based

Structure (SMILES)	SYTOX or DiSC3(5) fluorescence (initial assays, FIG. 4C and 4D)	SYTOX fluorescence (cell lysis) (4× their MICs)
CCCCCCCCCCCC1CC(=O)N[C@H](Cc2ccccc2)C(=O)N[C@H](CCCN)C(=O)N[C@@H](C(C)C)C(=O)N[C@@H]([C@@H](C)CC)C(=O)N[C@@H](Cc2ccccc2)C(=O)N[C@@H](C)C(=O)N[C@@H](Cc2ccccc2)C(=O)N1 (some centres unmarked) [SyCPA 144, mucilasyn] (HELM PEPTIDE1{A.F.[CCCCCCCCCCCC(CC(=O)[*:2])N[*:1]].[dF].[NCCC[C@@H](N[*:1])C(=O)[*:2]].V.I.F}$PEPTIDE1,PEPTIDE1,1:R1-8:R2$$$V2.0)	slight increase in either SYTOX or DiSC3(5) fluorescence	–
CCCCCCCCCCCCCC(=O)N[C@H]1CCCNC(=O)[C@H](CC(C)C)NC(=O)[C@H](CCCNC(=N)N)NC(=O)[C@H]([C@@H](C)CC)NC(=O)[C@@H](CCCNC(=N)N)NC1=O [SyCPA 63, thurinsyn] (HELM PEPTIDE1{[CCCCCCCCCCCCCC(=O)[*:2]].[Orn].[dR].I.R.L}$PEPTIDE1,PEPTIDE1,2:R3-6:R2$$$V2.0)	–	did not lyse bacteria
